Among the data in paper doi:10.1101/059964 are binding values, retold here.

By UniProt entry, the sequences of proteins in these tests, tags left out.
UniProt Q86SE9: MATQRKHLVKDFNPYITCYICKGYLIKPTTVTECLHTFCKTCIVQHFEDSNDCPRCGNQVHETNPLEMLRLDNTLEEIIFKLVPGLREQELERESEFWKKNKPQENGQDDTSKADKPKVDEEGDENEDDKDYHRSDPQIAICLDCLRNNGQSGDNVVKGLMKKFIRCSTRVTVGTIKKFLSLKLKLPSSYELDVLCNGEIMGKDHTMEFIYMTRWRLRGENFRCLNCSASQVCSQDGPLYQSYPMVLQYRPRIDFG
UniProt Q06587: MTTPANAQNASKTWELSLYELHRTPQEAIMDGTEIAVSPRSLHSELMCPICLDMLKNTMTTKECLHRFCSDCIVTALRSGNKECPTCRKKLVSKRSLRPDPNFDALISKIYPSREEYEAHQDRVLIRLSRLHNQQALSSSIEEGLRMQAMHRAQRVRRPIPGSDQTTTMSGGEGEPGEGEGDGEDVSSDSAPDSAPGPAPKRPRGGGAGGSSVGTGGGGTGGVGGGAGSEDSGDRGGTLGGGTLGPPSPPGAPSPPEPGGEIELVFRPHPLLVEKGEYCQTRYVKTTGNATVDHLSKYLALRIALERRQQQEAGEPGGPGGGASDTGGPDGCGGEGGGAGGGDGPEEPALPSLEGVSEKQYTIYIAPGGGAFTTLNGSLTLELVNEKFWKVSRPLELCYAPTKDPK
UniProt Q99496: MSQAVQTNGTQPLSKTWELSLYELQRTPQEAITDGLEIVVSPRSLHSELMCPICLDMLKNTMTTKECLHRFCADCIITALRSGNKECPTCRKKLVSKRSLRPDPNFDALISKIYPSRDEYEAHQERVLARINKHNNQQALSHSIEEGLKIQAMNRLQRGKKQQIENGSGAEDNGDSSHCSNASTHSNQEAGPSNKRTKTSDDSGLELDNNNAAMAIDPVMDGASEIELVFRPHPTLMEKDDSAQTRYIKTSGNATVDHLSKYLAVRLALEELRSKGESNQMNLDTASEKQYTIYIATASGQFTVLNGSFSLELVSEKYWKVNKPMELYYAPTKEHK

These are yes or no findings as the source states them, for the method shown. In cells and extracts the contact can be indirect. A yes stands for co-enrichment or nearness to the bait. Other partners may have been found. For some of these results: No binding means not detected with the bait.

T1: DCAF7 (human) (UniProt P61962)
T1 sequence: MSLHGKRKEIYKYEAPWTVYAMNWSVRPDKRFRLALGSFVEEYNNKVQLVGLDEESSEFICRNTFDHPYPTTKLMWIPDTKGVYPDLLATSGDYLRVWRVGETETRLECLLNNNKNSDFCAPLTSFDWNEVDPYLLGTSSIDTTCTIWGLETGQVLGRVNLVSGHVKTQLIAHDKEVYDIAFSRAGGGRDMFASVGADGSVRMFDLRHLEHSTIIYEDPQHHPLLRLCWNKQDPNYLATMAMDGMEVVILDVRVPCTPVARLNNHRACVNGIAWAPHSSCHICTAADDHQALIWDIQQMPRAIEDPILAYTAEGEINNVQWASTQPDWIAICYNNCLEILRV

T2: PCGF3 (human) (UniProt Q3KNV8)
T2 sequence: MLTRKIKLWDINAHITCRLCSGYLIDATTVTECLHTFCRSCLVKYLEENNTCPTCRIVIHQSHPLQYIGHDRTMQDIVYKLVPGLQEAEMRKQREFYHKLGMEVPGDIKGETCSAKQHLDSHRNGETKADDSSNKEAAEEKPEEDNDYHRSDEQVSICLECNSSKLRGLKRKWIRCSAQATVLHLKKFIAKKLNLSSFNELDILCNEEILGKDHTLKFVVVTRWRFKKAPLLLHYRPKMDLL

T3: RYBP (human) (UniProt Q8N488)
T3 sequence: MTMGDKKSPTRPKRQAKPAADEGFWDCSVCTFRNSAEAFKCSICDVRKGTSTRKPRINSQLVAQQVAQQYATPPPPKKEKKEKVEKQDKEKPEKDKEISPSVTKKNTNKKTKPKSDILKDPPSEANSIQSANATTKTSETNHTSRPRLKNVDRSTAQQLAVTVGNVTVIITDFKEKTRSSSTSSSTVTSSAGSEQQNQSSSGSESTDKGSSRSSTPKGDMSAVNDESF

T4: YAF2 (human) (UniProt Q8IY57)
T4 sequence: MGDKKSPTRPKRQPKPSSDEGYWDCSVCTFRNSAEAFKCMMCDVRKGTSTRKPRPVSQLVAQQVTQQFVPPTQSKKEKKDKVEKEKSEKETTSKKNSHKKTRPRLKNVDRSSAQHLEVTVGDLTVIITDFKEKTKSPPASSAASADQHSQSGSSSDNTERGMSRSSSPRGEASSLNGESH

B1: FBRS (protein, UniProt Q9HAH7 1-460)
chain: MFEKYPGKMEGLFRHNPYTAFPPAVPGLPPGLPPAVSFGSLQGAFQPKSTNPELPPRLGPVPSGLSQKGTQIPDHFRPPLRKPGKWCAMHVRVAYMILRHQEKMKGDSHKLDFRNDLLPCLPGPYGALPPGQELSHPASLFTATGAVHAAANPFTAAPGAHGPFLSPSTHIDPFGRPTSFASLAALSNGAFGGLGSPTFNSGAVFAQKESPGAPPAFASPPDPWGRLHRSPLTFPAWVRPPEAARTPGSDKERPVERREPSITKEEKDRDLPFSRPQLRVSPATPKARAGEEGPRPTKESVRVKEERKEEAAAAAAAAAAAAAAAAAAATGPQGLHLLFERPRPPPFLGPSPPDRCAGFLEPTWLAAPPRLARPPRFYEAGEELTGPGAVAAARLYGLEPAHPLLYSRLAPPPPPAAAPGTPHLLSKTPPGALLGAPPPLVPAPRPSSPPRGPGPARADR
B2: SWAHC (protein, UniProt Q53LP3 1-525)
chain: MEGPAEWGPEAALGPEAVLRFLAERGGRALHAELVQHFRGALGGEPEQRARARAHFKELVNAVATVRVDPADGAKYVHLKKRFCEGPSEPSGDPPRIQVTAEPEAPDGPAGPEARDRLPDAAAPESLPGQGRELGEGEPPAPAHWPPLSAGARRKNSRRDVQPLPRTPAPGPSEDLELPPHGCEEADRGSSLVGATAQRPARQNLRDLVMGSSPQLKRSVCPGGSSPGSSSGGGRGRGGGDSDSASVASSSAEEESSGGGSVTLDPLEHAWMLSASDGKWDSLEGLLTCEPGLLVKRDFITGFTCLHWAAKHGRQELLAMLVNFANKHQLPVNIDARTSGGYTALHLAAMHGHVEVVKLLVGAYDADVDIRDYSGKKASQYLSRSIAEEIKNLVGALDEGDGESAAGSGGGRWRLSKVLPSHLITYKLSHALEDGGDHHHHHHSAEGWVGGKAKDPGRKASGSSSGRIKPRLNKIRFRTQIVHTTPSFRDPEQPLEGRGEEGVGEERPVKGHSPFTLRPKSNVFG
B3: SWAHA (protein, UniProt Q2M3V2 18-549)
chain: AVLGFLQEHGGKVRNSELLSRFKPLLDAGDPRGRAARRDRFKQFVNNVAVVKELDGVKFVVLRKKPRPPEPEPAPFGPPGAAAQPSKPTSTVLPRSASAPGAPPLVRVPRPVEPPGDLGLPTEPQDTPGGPASEPAQPPGERSADPPLPALELAQATERPSADAAPPPRAPSEAASPCSDPPDAEPGPGAAKGPPQQKPCMLPVRCVPAPATLRLRAEEPGLRRQLSEEPSPRSSPLLLRRLSVEESGLGLGLGPGRSPHLRRLSRAGPRLLSPDAEELPAAPPPSAVPLEPSEHEWLVRTAGGRWTHQLHGLLLRDRGLAAKRDFMSGFTALHWAAKSGDGEMALQLVEVARRSGAPVDVNARSHGGYTPLHLAALHGHEDAAVLLVVRLGAQVHVRDHSGRRAYQYLRPGSSYALRRLLGDPGLRGTTEPDATGGGSGSLAARRPVQVAATILSSTTSAFLGVLADDLMLQDLARGLKKSSSFSKFLSASPMAPRKKTKIRGGLPAFSEISRRPTPGPLAGLVPSLPPTT
B4: AUTS2 (protein, UniProt Q8WXX7 1-1259)
chain: MDGPTRGHGLRKKRRSRSQRDRERRSRGGLGAGAAGGGGAGRTRALSLASSSGSDKEDNGKPPSSAPSRPRPPRRKRRESTSAEEDIIDGFAMTSFVTFEALEKDVALKPQERVEKRQTPLTKKKREALTNGLSFHSKKSRLSHPHHYSSDRENDRNLCQHLGKRKKMPKALRQLKPGQNSCRDSDSESASGESKGFHRSSSRERLSDSSAPSSLGTGYFCDSDSDQEEKASDASSEKLFNTVIVNKDPELGVGTLPEHDSQDAGPIVPKISGLERSQEKSQDCCKEPIFEPVVLKDPCPQVAQPIPQPQTEPQLRAPSPDPDLVQRTEAPPQPPPLSTQPPQGPPEAQLQPAPQPQVQRPPRPQSPTQLLHQNLPPVQAHPSAQSLSQPLSAYNSSSLSLNSLSSSRSSTPAKTQPAPPHISHHPSASPFPLSLPNHSPLHSFTPTLQPPAHSHHPNMFAPPTALPPPPPLTSGSLQVAGHPAGSTYSEQDILRQELNTRFLASQSADRGASLGPPPYLRTEFHQHQHQHQHTHQHTHQHTFTPFPHAIPPTAIMPTPAPPMFDKYPTKVDPFYRHSLFHSYPPAVSGIPPMIPPTGPFGSLQGAFQPKTSNPIDVAARPGTVPHTLLQKDPRLTDPFRPMLRKPGKWCAMHVHIAWQIYHHQQKVKKQMQSDPHKLDFGLKPEFLSRPPGPSLFGAIHHPHDLARPSTLFSAAGAAHPTGTPFGPPPHHSNFLNPAAHLEPFNRPSTFTGLAAVGGNAFGGLGNPSVTPNSMFGHKDGPSVQNFSNPHEPWNRLHRTPPSFPTPPPWLKPGELERSASAAAHDRDRDVDKRDSSVSKDDKERESVEKRHSSHPSPAPVLPVNALGHTRSSTEQIRAHLNTEAREKDKPKERERDHSESRKDLAADEHKAKEGHLPEKDGHGHEGRAAGEEAKQLARVPSPYVRTPVVESARPNSTSSREAEPRKGEPAYENPKKSSEVKVKEERKEDHDLPPEAPQTHRASEPPPPNSSSSVHPGPLASMPMTVGVTGIHPMNSISSLDRTRMMTPFMGISPLPGGERFPYPSFHWDPIRDPLRDPYRELDIHRRDPLGRDFLLRNDPLHRLSTPRLYEADRSFRDREPHDYSHHHHHHHHPLSVDPRREHERGGHLDERERLHMLREDYEHTRLHSVHPASLDGHLPHPSLITPGLPSMHYPRISPTAGNQNGLLNKTPPTAALSAPPPLISTLGGRPVSPRRTTPLSAEIRERPPSHTLKDIEAR
B5: RYBP (protein, UniProt Q8N488 1-228)
chain: T3 sequence
B6: YAF2 (protein, UniProt Q8IY57 1-180)
chain: T4 sequence
B7: PCGF2 (protein, UniProt P35227 1-344)
chain: MHRTTRIKITELNPHLMCALCGGYFIDATTIVECLHSFCKTCIVRYLETNKYCPMCDVQVHKTRPLLSIRSDKTLQDIVYKLVPGLFKDEMKRRRDFYAAYPLTEVPNGSNEDRGEVLEQEKGALSDDEIVSLSIEFYEGARDRDEKKGPLENGDGDKEKTGVRFLRCPAAMTVMHLAKFLRNKMDVPSKYKVEVLYEDEPLKEYYTLMDIAYIYPWRRNGPLPLKYRVQPACKRLTLATVPTPSEGTNTSGASECESVSDKAPSPATLPATSSSLPSPATPSHGSPSSHGPPATHPTSPTPPSTASGATTAANGGSLNCLQTPSSTSRGRKMTVNGAPVPPLT
B8: PCGF6 (protein, UniProt Q9BYE7 1-350)
chain: MEGVAVVTAGSVGAAKTEGAAALPPPPPVSPPALTPAPAAGEEGPAPLSETGAPGCSGSRPPELEPERSLGRFRGRFEDEDEELEEEEELEEEEEEEEEDMSHFSLRLEGGRQDSEDEEERLINLSELTPYILCSICKGYLIDATTITECLHTFCKSCIVRHFYYSNRCPKCNIVVHQTQPLYNIRLDRQLQDIVYKLVINLEEREKKQMHDFYKERGLEVPKPAVPQPVPSSKGRSKKVLESVFRIPPELDMSLLLEFIGANEGTGHFKPLEKKFVRVSGEATIGHVEKFLRRKMGLDPACQVDIICGDHLLEQYQTLREIRRAIGDAAMQDGLLVLHYGLVVSPLKIT

The target in the first experiment is T1, DCAF7 (human). The experiment in a line: affinity purification with mass spectrometry.
As for B1, the binding entry was “binds”.

Take B2: the binding entry is “binds”.

Consider B3, for which the binding result is given as “binds”.

For the molecule B4, the binding entry is listed as “binds”.

The target in the next experiment is T2, PCGF3 (human). The experiment is described as follows: affinity purification with mass spectrometry.
On to B1, for which the binding entry is “binds”.

Regarding B4, the binding result is reported as “binds”.

The target of a further experiment is PCGF5 (human) (UniProt Q86SE9). The experiment in a line: affinity purification with mass spectrometry.
For the molecule B1, the binding entry is listed as “binds”.

B4: the binding entry is listed as “binds”.

The next experiment addresses RING1 (human) (UniProt Q06587). The experiment is described as follows: affinity purification with mass spectrometry.
For the molecule B1, the binding result was “binds”.

Consider B5, for which the binding entry was “binds”.

As to B6, the binding entry is “binds”.

As for B7, the binding result is on record as “binds”.

For the molecule B4, the binding entry is given as “binds”.

For a further experiment, the target named is RING2 (human) (UniProt Q99496). The experiment is described as follows: affinity purification with mass spectrometry.
Regarding B1, the binding result is on record as “binds”.

As to B5, the binding result is reported as “binds”.

Take B6: the binding result is “binds”.

As to B7, the binding result is “binds”.

Turning to B4, the binding entry is “binds”.

Regarding B8, the binding entry was “binds”.

Another experiment concerns the target T3, RYBP (human). The experiment is described as follows: affinity purification with mass spectrometry.
For the molecule B1, the binding result was “binds”.

Consider B7, for which the binding result was “binds”.

For B4, the binding entry is reported as “binds”.

Turning to B8, the binding entry is recorded as “binds”.

In the next experiment the target is T4, YAF2 (human). The experiment in a line: affinity purification with mass spectrometry.
In the case of B1, the binding result is listed as “binds”.

In the case of B5, the binding result is reported as “no binding”.

For B7, the binding entry is “binds”.

On to B4, for which the binding result is listed as “binds”.

With B8, the binding result is recorded as “binds”.
